The other results are listed elsewhere or left out.
How the values were obtained:
Experiment in all cases: log2 fold change, soluble protein after heating vs DMSO (PISA); higher = thermal stabilisation; K562 lysate, 10 uM; active = over 0.2 and 3.5 SD of the protein, either way, in both replicates (recomputed)
[1] = compound: Cc1cn(-c2cc(NC(=O)c3ccc(C)c(Nc4nccc(-c5cccnc5)n4)c3)cc(C(F)(F)F)c2)cn1 [nilotinib]
Procedure, shortened: (§1)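 To prepare the extract, K562 pellets were dounce-homogenised in PBS pH 7.4 with 1 mM MgCl2, giving crude material at 1 mg/mL protein. This was treated with 10 μM compound for 30 min, then heated in aliquots for 3 min over 48°C-58°C before pooling and addition of NP-40 to 0.5% at 4°C. Centrifugation at 21,000xg for 90 min left soluble protein in the supernatant, which TMTpro 16plex LC-MS/MS quantified with equalised channel sums. Results are log-two fold changes in thermal stability compared with solvent controls, from duplicates.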

Chains of the proteins cited; added tags and fusions are not shown. Lines headed by an entry give the natural chain unless they say otherwise; changes in a name come on top.
UniProt P42898: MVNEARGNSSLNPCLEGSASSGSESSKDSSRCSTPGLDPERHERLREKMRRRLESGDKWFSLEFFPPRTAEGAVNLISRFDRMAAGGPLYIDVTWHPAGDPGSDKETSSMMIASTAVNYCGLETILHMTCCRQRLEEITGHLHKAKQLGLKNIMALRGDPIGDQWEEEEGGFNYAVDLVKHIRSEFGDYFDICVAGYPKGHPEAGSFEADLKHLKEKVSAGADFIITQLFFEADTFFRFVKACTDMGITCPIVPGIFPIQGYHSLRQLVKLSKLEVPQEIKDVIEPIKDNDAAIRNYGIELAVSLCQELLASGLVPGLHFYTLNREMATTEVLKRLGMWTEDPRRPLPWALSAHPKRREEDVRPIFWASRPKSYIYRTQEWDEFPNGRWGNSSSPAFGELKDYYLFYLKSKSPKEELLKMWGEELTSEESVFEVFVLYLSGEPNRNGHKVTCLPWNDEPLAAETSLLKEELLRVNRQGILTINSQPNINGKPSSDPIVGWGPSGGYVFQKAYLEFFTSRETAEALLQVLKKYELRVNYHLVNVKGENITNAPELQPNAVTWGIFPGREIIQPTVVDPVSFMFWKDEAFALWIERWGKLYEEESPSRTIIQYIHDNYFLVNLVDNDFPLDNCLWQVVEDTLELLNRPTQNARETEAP
UniProt Q15800: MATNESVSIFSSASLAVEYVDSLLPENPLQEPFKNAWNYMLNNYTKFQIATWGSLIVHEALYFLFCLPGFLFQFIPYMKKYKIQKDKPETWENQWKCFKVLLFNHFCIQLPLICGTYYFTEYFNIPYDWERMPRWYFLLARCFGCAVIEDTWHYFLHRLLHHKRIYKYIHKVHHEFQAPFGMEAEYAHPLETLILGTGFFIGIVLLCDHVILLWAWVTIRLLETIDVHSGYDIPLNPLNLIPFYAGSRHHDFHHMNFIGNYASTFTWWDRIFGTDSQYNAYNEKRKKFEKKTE
UniProt Q9ULH7: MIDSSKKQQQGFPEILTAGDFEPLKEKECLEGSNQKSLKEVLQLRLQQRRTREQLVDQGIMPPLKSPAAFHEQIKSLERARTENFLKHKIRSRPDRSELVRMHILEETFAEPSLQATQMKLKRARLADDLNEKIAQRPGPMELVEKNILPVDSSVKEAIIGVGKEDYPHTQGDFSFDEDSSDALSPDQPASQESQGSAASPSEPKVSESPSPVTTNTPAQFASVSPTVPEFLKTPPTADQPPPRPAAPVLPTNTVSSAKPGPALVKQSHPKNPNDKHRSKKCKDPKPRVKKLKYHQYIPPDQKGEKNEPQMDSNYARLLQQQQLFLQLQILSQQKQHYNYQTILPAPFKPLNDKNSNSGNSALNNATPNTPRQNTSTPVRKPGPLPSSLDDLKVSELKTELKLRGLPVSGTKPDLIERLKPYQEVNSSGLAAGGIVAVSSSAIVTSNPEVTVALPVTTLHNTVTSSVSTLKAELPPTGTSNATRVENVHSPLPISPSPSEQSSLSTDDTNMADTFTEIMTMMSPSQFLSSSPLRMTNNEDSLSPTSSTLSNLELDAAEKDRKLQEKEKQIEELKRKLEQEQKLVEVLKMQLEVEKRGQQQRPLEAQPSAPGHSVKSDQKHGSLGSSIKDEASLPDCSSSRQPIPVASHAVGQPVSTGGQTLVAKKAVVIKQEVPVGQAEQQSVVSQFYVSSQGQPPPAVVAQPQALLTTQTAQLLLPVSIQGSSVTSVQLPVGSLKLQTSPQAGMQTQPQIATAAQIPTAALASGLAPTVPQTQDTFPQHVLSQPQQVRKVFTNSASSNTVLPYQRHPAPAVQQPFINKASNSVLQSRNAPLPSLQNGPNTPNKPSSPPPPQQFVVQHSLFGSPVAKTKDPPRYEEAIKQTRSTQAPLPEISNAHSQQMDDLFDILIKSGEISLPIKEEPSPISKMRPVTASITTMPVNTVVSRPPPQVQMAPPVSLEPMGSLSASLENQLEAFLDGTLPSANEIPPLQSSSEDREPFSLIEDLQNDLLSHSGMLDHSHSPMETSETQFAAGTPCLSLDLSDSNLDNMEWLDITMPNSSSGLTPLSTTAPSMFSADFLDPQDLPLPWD
UniProt P46199: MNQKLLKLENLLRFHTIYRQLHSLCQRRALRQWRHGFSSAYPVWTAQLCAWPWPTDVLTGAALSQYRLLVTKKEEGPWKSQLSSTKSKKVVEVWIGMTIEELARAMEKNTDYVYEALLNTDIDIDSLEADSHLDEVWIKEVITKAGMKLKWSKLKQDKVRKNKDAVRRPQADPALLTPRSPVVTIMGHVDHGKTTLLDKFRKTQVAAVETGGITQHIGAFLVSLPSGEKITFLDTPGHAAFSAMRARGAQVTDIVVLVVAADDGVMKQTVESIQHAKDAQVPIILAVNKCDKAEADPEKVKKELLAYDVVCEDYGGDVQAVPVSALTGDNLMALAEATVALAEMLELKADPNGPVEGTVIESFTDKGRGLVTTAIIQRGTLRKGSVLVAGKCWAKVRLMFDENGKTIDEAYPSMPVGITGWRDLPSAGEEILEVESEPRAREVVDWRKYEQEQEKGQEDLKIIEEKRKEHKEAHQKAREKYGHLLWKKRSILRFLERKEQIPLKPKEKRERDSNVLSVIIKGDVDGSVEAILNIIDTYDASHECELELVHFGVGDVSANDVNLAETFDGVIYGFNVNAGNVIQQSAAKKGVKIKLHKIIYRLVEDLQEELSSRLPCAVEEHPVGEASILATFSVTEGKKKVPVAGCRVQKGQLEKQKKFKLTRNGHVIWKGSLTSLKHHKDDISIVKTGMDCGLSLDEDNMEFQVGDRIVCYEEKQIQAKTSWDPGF
UniProt Q9NZJ7, whole entry, looked up: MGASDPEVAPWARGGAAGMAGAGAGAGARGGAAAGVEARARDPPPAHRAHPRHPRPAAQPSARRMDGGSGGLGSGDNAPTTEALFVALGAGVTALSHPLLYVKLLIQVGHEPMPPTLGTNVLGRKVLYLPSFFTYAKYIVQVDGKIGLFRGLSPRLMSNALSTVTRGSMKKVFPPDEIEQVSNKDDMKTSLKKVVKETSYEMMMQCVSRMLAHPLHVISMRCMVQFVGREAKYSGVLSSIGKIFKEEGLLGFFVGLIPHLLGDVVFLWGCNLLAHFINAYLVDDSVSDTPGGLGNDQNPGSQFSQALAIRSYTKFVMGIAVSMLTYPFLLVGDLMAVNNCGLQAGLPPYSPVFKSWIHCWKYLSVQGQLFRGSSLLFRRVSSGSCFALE
UniProt Q13496: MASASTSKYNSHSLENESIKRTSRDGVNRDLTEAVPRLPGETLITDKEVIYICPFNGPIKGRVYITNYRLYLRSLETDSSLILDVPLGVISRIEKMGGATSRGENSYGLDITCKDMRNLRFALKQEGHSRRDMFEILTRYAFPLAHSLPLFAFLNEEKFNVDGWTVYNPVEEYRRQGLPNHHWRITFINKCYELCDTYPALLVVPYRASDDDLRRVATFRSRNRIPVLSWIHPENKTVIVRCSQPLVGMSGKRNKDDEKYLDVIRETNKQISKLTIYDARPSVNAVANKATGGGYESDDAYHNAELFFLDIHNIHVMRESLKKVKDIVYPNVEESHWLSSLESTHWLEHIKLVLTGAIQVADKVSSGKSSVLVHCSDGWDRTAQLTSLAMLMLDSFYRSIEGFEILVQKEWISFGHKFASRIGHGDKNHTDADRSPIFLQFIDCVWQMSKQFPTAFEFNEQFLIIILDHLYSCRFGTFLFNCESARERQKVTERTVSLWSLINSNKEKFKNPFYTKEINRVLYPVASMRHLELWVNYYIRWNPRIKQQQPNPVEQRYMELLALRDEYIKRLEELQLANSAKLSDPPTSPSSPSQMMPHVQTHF
UniProt P00846: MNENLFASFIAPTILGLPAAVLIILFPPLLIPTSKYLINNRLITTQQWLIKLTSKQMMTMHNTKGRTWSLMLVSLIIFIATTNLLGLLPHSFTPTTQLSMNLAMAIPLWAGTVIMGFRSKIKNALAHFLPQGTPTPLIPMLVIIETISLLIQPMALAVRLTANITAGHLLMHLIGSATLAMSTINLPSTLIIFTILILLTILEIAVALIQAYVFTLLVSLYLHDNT
UniProt Q9UDX5: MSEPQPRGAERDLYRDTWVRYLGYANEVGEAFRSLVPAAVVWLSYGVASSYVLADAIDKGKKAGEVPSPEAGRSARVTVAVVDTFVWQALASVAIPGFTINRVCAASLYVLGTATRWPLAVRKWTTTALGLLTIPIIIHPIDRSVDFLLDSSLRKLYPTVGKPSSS
UniProt Q99707: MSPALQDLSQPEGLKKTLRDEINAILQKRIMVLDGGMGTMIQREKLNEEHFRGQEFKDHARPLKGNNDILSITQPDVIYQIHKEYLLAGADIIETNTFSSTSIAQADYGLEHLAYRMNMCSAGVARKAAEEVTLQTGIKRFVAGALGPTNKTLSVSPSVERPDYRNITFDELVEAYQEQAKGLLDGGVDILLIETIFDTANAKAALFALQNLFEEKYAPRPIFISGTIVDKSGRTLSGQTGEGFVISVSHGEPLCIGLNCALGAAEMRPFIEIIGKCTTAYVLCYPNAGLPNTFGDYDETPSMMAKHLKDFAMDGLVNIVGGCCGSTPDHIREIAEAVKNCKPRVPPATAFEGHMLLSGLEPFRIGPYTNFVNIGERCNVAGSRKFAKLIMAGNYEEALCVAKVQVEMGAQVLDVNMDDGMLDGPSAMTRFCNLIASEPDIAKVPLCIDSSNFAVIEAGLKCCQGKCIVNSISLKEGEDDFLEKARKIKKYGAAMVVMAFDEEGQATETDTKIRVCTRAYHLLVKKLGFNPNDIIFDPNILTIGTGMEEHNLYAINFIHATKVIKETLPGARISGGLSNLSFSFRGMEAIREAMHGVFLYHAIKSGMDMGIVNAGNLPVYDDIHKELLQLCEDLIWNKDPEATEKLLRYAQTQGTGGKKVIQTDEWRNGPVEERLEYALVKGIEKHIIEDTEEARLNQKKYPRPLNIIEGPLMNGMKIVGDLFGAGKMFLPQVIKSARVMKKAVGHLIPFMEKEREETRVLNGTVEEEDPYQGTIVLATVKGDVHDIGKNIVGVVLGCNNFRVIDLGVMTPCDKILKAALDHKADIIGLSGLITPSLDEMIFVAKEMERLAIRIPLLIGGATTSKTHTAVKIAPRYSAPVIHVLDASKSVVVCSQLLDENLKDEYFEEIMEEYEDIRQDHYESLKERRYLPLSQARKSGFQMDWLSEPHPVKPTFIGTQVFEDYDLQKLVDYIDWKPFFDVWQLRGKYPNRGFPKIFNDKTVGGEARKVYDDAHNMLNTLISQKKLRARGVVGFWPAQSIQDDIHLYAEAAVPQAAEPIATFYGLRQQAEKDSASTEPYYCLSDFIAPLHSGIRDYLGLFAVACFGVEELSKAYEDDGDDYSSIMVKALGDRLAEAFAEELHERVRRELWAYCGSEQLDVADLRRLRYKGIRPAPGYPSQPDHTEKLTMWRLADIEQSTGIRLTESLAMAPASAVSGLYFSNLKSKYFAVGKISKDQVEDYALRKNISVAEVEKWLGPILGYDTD
UniProt P20585: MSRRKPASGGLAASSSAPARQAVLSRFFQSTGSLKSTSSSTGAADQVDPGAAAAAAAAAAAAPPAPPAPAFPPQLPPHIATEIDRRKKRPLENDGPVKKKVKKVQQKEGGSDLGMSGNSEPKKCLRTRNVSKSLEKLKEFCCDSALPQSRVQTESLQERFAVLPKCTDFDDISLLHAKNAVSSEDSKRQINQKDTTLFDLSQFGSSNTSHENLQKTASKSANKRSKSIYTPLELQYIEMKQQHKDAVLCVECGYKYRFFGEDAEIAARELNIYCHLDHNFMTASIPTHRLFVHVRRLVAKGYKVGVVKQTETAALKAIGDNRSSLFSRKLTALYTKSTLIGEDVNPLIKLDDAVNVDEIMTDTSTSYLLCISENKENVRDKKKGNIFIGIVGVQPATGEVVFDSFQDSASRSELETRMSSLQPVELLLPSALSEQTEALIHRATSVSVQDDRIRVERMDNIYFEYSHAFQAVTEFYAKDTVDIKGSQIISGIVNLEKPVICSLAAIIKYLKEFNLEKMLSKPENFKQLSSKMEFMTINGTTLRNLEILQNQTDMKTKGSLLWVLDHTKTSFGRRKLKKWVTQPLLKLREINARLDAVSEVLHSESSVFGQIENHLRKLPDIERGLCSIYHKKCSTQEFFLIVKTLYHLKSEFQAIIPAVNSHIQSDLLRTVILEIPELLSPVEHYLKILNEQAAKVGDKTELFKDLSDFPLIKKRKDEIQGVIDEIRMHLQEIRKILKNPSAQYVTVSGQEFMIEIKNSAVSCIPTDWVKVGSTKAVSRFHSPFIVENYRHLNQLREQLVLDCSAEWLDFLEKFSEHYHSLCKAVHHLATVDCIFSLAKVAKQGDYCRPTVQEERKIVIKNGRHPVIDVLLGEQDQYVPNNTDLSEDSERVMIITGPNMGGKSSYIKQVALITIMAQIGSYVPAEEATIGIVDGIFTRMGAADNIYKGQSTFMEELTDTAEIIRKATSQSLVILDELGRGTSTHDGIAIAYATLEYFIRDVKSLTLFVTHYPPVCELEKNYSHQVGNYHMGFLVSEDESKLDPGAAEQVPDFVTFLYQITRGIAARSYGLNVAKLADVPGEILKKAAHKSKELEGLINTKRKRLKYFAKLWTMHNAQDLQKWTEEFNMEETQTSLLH

[2] = compound: Cc1nc(Nc2n[nH]c3c2CN(C(=O)N[C@H](CN(C)C)c2ccccc2)C3(C)C)c2sccc2n1
Procedure, shortened: as §1

[3] = compound: Cc1nc(Nc2ncc(C(=O)Nc3c(C)cccc3Cl)s2)cc(N2CCN(CCO)CC2)n1 [dasatinib]
Procedure, shortened: as §1

[4] = compound: Cc1ncc(-c2ccnc(Nc3ccc(S(C)(=O)=O)cc3)n2)n1C(C)C
Procedure, shortened: as §1

[5] = compound: Cn1cc(-c2ccc3c(c2)CCN3C(=O)Cc2cccc(C(F)(F)F)c2)c2c(N)ncnc21
Procedure, shortened: as §1

[6] = compound: Cn1cc(CNCC2CCN(c3ncc(C(=O)NO)cn3)CC2)c2ccccc21 [quisinostat]
Procedure, shortened: as §1

[7] = compound: Cn1cncc1[C@@](N)(c1ccc(Cl)cc1)c1ccc2c(c1)c(-c1cccc(Cl)c1)cc(=O)n2C [tipifarnib]
Procedure, shortened: as §1

[8] = compound: NC(=O)Nc1cc(-c2cccc(F)c2)sc1C(=O)N[C@H]1CCCNC1
Procedure, shortened: as §1

[9] = compound: NC(=O)c1cnc(N[C@@H]2CCCC[C@@H]2N)nc1Nc1cccc(-n2nccn2)c1
Procedure, shortened: as §1

[10] = compound: NC1(c2ccc(-c3nc4ccn5c(=O)[nH]nc5c4cc3-c3ccccc3)cc2)CCC1
Procedure, shortened: as §1

[11] = compound: NCC(=O)Nc1ccc(-n2nc(C(F)(F)F)cc2-c2ccc3c(ccc4ccccc43)c2)cc1
Procedure, shortened: as §1

[12] = compound: O=C(CCCCCCC(=O)Nc1ccccc1)NO [vorinostat]
Procedure, shortened: as §1

[13] = compound: O=C(O)c1ccc2c(c1)nc(Nc1cccc(Cl)c1)c1ccncc12 [silmitasertib]
Procedure, shortened: as §1

[14] = compound: O=C1NC(=O)C(c2cnc3ccccn23)=C1c1cn2c3c(cc(F)cc13)CN(C(=O)N1CCCCC1)CC2
Procedure, shortened: as §1

[15] = compound: c1cn2cc(-c3ccc4cn[nH]c4c3)nc(Nc3ccc(N4CCOCC4)cc3)c2n1 [entospletinib]
Procedure, shortened: as §1

Target | log2 fold change [1] | log2 fold change [2] | log2 fold change [3] | log2 fold change [4] | log2 fold change [5] | log2 fold change [6] | log2 fold change [7] | log2 fold change [8] | log2 fold change [9] | log2 fold change [10] | log2 fold change [11] | log2 fold change [12] | log2 fold change [13] | log2 fold change [14] | log2 fold change [15]
MTHFR isoform 2 (UniProt P42898) | inactive: 0.019 | inactive: 0.019 | inactive: -0.031 | inactive: -0.016 | inactive: 0.009 | inactive: -0.037 | inactive: -0.019 | inactive: 0.04 | inactive: 0.004 | inactive: 0.01 | inactive: 0.011 | inactive: -0.11 | inactive: 0.011 | inactive: -0.024 | inactive: -0.008
MTHFD1L (UniProt B7ZM99) | inactive: -0.017 | inactive: 0.028 | inactive: -0.061 | inactive: 0.002 | inactive: 0.046 | inactive: -0.055 | inactive: -0.01 | inactive: 0.074 | inactive: 0.019 | inactive: -0.017 | inactive: 0.031 | active: -0.408 | inactive: 0.07 | inactive: 0.045 | inactive: -0.02
MSMO1 (UniProt Q15800) | inactive: 0.1 | inactive: -0.019 | inactive: 0.011 | inactive: 0.037 | inactive: 0.061 | inactive: 0.008 | inactive: -0.025 | inactive: -0.058 | inactive: 0.005 | inactive: -0.061 | inactive: -0.04 | inactive: 0.024 | inactive: -0.025 | inactive: -0.005 | inactive: -0.042
MRTFB isoform 5 (UniProt Q9ULH7) | inactive: -0.023 | inactive: 0.016 | inactive: -0.028 | inactive: -0.006 | inactive: 0.006 | inactive: -0.026 | inactive: -0.035 | inactive: 0.01 | inactive: 0.01 | inactive: 0.013 | inactive: 0.017 | inactive: 0.026 | inactive: -0.004 | inactive: 0.035 | inactive: -0.024
MTIF2 (UniProt P46199) | inactive: -0.014 | inactive: -0.019 | inactive: -0.013 | inactive: -0.02 | inactive: 0.052 | inactive: -0.075 | inactive: 0.011 | inactive: 0.029 | inactive: 0.041 | inactive: -0.066 | inactive: -0.01 | inactive: -0.176 | inactive: 0.008 | inactive: -0.05 | inactive: 0.005
MTCH1 (UniProt Q9NZJ7) | inactive: -0.019 | inactive: -0.017 | inactive: 0.04 | inactive: -0.01 | inactive: -0.035 | inactive: 0.057 | inactive: 0.031 | inactive: 0.003 | inactive: -0.015 | inactive: 0.005 | inactive: -0.021 | inactive: 0.046 | inactive: 0.012 | inactive: -0.02 | inactive: 0.044
MRPL24 (UniProt Q96A35) | inactive: 0.045 | inactive: -0.016 | inactive: 0.026 | inactive: 0.025 | inactive: 0.04 | inactive: -0.056 | inactive: 0.049 | inactive: -0.009 | inactive: 0.014 | inactive: -0.066 | inactive: -0.042 | inactive: -0.011 | inactive: 0.071 | inactive: 0.03 | inactive: -0.025
MRPS26 (UniProt Q9BYN8) | inactive: 0.11 | inactive: -0.3 | inactive: -0.017 | inactive: 0.209 | inactive: 0.057 | inactive: 0.001 | inactive: 0.303 | inactive: 0.084 | inactive: -0.009 | inactive: 0.078 | inactive: 0.023 | inactive: 0.132 | inactive: -0.194 | inactive: -0.109 | inactive: 0
MTM1 (UniProt Q13496) | inactive: -0.003 | inactive: 0 | inactive: 0.022 | inactive: 0.025 | inactive: -0.009 | inactive: -0.036 | inactive: 0.006 | inactive: 0.019 | inactive: -0.008 | inactive: -0.017 | inactive: 0.048 | inactive: 0.029 | inactive: -0.028 | inactive: -0.019 | inactive: 0.016
MT-ATP6 (UniProt P00846) | inactive: 0 | inactive: -0.068 | inactive: -0.147 | inactive: 0.026 | inactive: 0.224 | inactive: 0.012 | inactive: -0.119 | inactive: -0.02 | inactive: -0.109 | inactive: 0 | inactive: 0.023 | inactive: 0.126 | inactive: 0.118 | inactive: -0.029 | inactive: 0.016
MRPL39 isoform 2 (UniProt Q9NYK5) | inactive: 0.011 | inactive: 0.04 | inactive: 0.03 | inactive: 0.009 | inactive: 0.05 | inactive: -0.038 | inactive: -0.045 | inactive: -0.002 | inactive: 0.027 | inactive: -0.031 | inactive: -0.01 | inactive: -0.073 | inactive: 0.022 | inactive: 0.007 | inactive: 0
MRPL51 (UniProt Q4U2R6) | inactive: -0.029 | inactive: -0.006 | inactive: -0.056 | inactive: -0.054 | inactive: -0.055 | active: 0.27 | inactive: -0.003 | inactive: 0.055 | inactive: -0.003 | inactive: 0.024 | inactive: -0.03 | inactive: -0.067 | inactive: -0.054 | inactive: 0.121 | inactive: 0.003
MRPL3 (UniProt P09001) | inactive: -0.002 | inactive: -0.008 | inactive: -0.029 | inactive: -0.025 | inactive: 0.093 | inactive: -0.049 | inactive: -0.003 | inactive: 0.074 | inactive: -0.054 | inactive: 0.025 | inactive: 0.037 | inactive: -0.202 | inactive: 0.081 | inactive: 0.014 | inactive: 0.114
MTFP1 (UniProt Q9UDX5) | inactive: 0.044 | inactive: -0.021 | inactive: 0.069 | inactive: 0.043 | inactive: 0.008 | inactive: 0.133 | inactive: -0.014 | inactive: 0.02 | inactive: -0.103 | inactive: -0.004 | inactive: -0.04 | inactive: 0.102 | inactive: -0.007 | inactive: 0.02 | inactive: -0.009
MRPS31 (UniProt Q92665) | inactive: -0.005 | inactive: -0.002 | inactive: -0.034 | inactive: 0.034 | inactive: 0.002 | inactive: -0.046 | inactive: 0.015 | inactive: 0.022 | inactive: -0.026 | inactive: -0.014 | inactive: 0.058 | inactive: 0.021 | inactive: -0.046 | inactive: -0.001 | inactive: 0
MRPS2 (UniProt Q9Y399) | inactive: -0.05 | inactive: -0.057 | inactive: -0.003 | inactive: -0.117 | inactive: 0.075 | inactive: 0.024 | inactive: 0.009 | inactive: 0.062 | inactive: 0.02 | inactive: 0.05 | inactive: -0.006 | inactive: 0.008 | inactive: 0.115 | inactive: -0.026 | inactive: 0.015
MRPL42 (UniProt Q9Y6G3) | inactive: -0.005 | inactive: 0.052 | inactive: -0.092 | inactive: 0.043 | inactive: -0.039 | inactive: -0.051 | inactive: -0.136 | inactive: 0.08 | inactive: -0.029 | inactive: -0.097 | inactive: 0.057 | inactive: 0.043 | inactive: -0.221 | inactive: -0.024 | inactive: 0.207
MRPL33 (UniProt O75394) | inactive: 0.062 | inactive: -0.074 | inactive: -0.021 | inactive: 0.073 | inactive: -0.091 | inactive: -0.017 | inactive: 0.08 | inactive: 0.037 | inactive: 0.076 | inactive: 0.061 | inactive: 0.195 | inactive: 0.242 | inactive: -0.015 | inactive: 0.194 | inactive: -0.064
MRRF (UniProt Q96E11) | inactive: 0 | inactive: 0.021 | inactive: 0.002 | inactive: 0.031 | inactive: 0.009 | inactive: 0.043 | inactive: 0.029 | inactive: 0 | inactive: -0.004 | inactive: 0.017 | inactive: 0.037 | inactive: 0.116 | inactive: -0.022 | inactive: 0.009 | inactive: -0.027
MTR (UniProt Q99707) | inactive: -0.013 | inactive: -0.009 | inactive: -0.022 | inactive: 0.006 | inactive: 0.002 | inactive: -0.047 | inactive: -0.01 | inactive: 0.049 | inactive: -0.009 | inactive: -0.003 | inactive: 0.024 | inactive: -0.148 | inactive: 0.039 | inactive: 0.01 | inactive: -0.005
MSH3 (UniProt P20585) | inactive: -0.007 | inactive: 0.034 | inactive: -0.03 | inactive: 0.028 | inactive: 0.014 | inactive: -0.037 | inactive: -0.001 | inactive: -0.003 | inactive: 0.011 | inactive: -0.035 | inactive: 0.044 | active: -0.316 | inactive: 0.055 | inactive: -0.017 | inactive: 0.025

Single records, as listed above. Values in the order: log2 fold change [1] | log2 fold change [2] | log2 fold change [3] | log2 fold change [4] | log2 fold change [5] | log2 fold change [6] | log2 fold change [7] | log2 fold change [8] | log2 fold change [9] | log2 fold change [10] | log2 fold change [11] | log2 fold change [12] | log2 fold change [13] | log2 fold change [14] | log2 fold change [15]
MTFP1 (UniProt Q9UDX5) as listed: inactive: 0.044 | inactive: -0.021 | inactive: 0.069 | inactive: 0.043 | inactive: 0.008 | inactive: 0.133 | inactive: -0.014 | inactive: 0.02 | inactive: -0.103 | inactive: -0.004 | inactive: -0.04 | inactive: 0.102 | inactive: -0.007 | inactive: 0.02 | inactive: -0.009
MT-ATP6 (UniProt P00846) as listed: inactive: 0 | inactive: -0.068 | inactive: -0.147 | inactive: 0.026 | inactive: 0.224 | inactive: 0.012 | inactive: -0.119 | inactive: -0.02 | inactive: -0.109 | inactive: 0 | inactive: 0.023 | inactive: 0.126 | inactive: 0.118 | inactive: -0.029 | inactive: 0.016

Reference: the supplement of paper PMC10849652
